From PMC11408687
No constants are given. Whether binding was seen depends on the method and setting. In cells and extracts the contact can be indirect. These calls come from enrichment with a bait or labelling near it, and not all partners need be listed.

Chains of the proteins cited; added tags and fusions are not shown. Residues count along the entry.
UniProt Q91VN0, residues 31-1614: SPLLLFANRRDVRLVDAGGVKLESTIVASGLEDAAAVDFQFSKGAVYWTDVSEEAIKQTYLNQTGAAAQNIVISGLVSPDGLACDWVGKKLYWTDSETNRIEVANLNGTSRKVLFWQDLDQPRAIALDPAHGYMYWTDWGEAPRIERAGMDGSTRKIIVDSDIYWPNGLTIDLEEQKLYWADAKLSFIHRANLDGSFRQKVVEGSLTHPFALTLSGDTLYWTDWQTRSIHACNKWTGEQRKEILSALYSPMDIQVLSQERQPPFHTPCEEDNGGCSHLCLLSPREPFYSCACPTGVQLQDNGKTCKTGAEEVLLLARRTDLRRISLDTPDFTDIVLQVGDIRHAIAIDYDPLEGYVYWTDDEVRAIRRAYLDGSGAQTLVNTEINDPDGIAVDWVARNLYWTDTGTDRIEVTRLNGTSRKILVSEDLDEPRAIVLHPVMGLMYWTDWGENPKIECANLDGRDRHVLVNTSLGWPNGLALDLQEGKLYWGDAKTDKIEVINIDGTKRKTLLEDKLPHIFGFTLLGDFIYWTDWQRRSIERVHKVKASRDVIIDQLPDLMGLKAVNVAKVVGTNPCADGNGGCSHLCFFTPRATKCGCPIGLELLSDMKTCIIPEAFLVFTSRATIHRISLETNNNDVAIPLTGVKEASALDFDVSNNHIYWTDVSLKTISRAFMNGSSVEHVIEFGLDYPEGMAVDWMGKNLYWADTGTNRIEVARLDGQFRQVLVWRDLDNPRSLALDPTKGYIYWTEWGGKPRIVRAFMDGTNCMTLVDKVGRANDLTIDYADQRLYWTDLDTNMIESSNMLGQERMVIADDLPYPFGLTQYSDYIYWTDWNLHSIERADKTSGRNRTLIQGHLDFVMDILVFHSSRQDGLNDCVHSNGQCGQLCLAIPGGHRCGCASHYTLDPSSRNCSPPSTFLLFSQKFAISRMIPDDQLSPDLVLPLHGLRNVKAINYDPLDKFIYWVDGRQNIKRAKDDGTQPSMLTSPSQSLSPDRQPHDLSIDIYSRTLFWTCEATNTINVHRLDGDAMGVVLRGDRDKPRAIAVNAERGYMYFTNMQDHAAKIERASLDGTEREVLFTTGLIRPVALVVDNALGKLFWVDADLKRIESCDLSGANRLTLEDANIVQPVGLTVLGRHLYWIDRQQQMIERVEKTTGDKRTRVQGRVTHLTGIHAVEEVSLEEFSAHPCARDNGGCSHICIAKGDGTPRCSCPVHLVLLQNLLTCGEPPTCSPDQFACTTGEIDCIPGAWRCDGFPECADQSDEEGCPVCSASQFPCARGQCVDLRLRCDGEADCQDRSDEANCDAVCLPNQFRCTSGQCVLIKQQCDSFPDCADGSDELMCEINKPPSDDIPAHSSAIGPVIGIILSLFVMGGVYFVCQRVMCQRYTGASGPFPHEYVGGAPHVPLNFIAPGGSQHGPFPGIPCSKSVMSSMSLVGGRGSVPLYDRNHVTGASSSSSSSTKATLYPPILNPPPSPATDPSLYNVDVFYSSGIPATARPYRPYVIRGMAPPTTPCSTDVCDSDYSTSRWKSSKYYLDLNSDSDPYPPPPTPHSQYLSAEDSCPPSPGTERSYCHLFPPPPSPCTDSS

Target: T1, Mesencephalic astrocyte-derived neurotrophic factor (MANF), endogenous in mouse liver (mouse (endogenous in liver tissue)) (UniProt Q9CXI5)
T1 sequence: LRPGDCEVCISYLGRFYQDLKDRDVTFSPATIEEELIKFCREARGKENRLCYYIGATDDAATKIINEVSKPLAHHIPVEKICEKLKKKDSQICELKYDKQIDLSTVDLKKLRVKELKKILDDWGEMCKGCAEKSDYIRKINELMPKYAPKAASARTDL
Experiment: affinity purification with mass spectrometry; Co-IP with MANF antibody plus mass spectrometry analysis; sample not stated

For “Low-density lipoprotein receptor-related protein 5 (LRP5), endogenous in mouse liver (from UniProt Q91VN0 31-1614)”, the binding was “binds”.
